We go through ten molecules from paper doi:10.1101/2023.03.14.532478.

The chains behind the UniProt entries cited, without tags or fusion partners.
UniProt Q9BYG3: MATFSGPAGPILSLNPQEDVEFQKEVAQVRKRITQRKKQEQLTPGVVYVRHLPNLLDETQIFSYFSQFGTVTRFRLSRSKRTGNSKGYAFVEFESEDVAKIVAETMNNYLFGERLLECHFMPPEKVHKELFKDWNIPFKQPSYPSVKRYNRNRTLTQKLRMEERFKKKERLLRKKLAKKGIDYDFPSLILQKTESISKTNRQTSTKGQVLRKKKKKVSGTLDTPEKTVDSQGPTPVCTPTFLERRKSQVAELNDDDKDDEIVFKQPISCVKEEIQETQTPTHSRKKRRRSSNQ
UniProt Q14137: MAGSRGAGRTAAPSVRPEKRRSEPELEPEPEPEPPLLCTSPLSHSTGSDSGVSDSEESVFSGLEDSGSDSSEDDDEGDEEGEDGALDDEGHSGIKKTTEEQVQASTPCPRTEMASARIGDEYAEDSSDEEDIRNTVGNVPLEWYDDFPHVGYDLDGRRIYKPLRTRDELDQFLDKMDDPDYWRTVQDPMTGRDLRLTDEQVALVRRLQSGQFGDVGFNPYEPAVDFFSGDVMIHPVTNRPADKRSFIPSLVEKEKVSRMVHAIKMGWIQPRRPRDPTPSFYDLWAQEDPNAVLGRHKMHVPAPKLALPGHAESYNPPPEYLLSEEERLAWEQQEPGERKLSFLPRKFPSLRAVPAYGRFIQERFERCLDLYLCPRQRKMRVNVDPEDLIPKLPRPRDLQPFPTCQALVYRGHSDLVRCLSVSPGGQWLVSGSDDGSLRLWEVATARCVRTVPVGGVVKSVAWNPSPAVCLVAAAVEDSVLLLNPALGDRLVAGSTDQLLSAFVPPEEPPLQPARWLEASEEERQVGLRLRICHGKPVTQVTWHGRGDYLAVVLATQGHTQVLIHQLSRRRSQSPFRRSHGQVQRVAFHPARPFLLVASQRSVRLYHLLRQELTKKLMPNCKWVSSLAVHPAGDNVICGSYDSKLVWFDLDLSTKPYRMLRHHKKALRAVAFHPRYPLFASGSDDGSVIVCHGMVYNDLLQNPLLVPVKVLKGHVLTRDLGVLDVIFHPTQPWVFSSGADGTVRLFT

Read-outs that look alike come from different tables or passages of the source. No constants are given. Whether binding was seen depends on the method and setting. Some binding calls cover weakened binding; strength is not graded here.

Test [1] concerns the target MK67I (human (endogenous in HEK 293-F)) (UniProt Q9BYG3).
The target is the same in test [2]. This is another data set of the same source.
Test [3] deals with BOP1 (human (endogenous in HEK 293-F)) (UniProt Q14137). In words: cryo-EM structure.

Regarding MAK16 (from UniProt Q9BXY0 1-300), in test [1], the binding entry is listed as “binds”.

B1: GNL3 (protein, UniProt Q9BVP2 1-549)
chain: MKRPKLKKASKRMTCHKRYKIQKKVREHHRKLRKEAKKRGHKKPRKDPGVPNSAPFKEALLREAELRKQRLEELKQQQKLDRQKELEKKRKLETNPDIKPSNVEPMEKEFGLCKTENKAKSGKQNSKKLYCQELKKVIEASDVVLEVLDARDPLGCRCPQVEEAIVQSGQKKLVLILNKSDLVPKENLESWLNYLKKELPTVVFRASTKPKDKGKITKRVKAKKNAAPFRSEVCFGKEGLWKLLGGFQETCSKAIRVGVIGFPNVGKSSIINSLKQEQMCNVGVSMGLTRSMQVVPLDKQITIIDSPSFIVSPLNSSSALALRSPASIEVVKPMEAASAILSQADARQVVLKYTVPGYRNSLEFFTVLAQRRGMHQKGGIPNVEGAAKLLWSEWTGASLAYYCHPPTSWTPPPYFNESIVVDMKSGFNLEELEKNNAQSIRAIKGPHLANSILFQSSGLTNGIIEEKDIHEELPKRKERKQEEREDDKDSDQETVDEEVDENSSGMFAAEETGEALSEETTAGEQSTRSFILDKIIEEDDAYDFSTDYV
With B1, the binding result in test [1] was “binds”.

B2: SSF1 (protein, UniProt Q9NQ55 1-473)
chain: MGQSGRSRHQKRARAQAQLRNLEAYAANPHSFVFTRGCTGRNIRQLSLDVRRVMEPLTASRLQVRKKNSLKDCVAVAGPLGVTHFLILSKTETNVYFKLMRLPGGPTLTFQVKKYSLVRDVVSSLRRHRMHEQQFAHPPLLVLNSFGPHGMHVKLMATMFQNLFPSINVHKVNLNTIKRCLLIDYNPDSQELDFRHYSIKVVPVGASRGMKKLLQEKFPNMSRLQDISELLATGAGLSESEAEPDGDHNITELPQAVAGRGNMRAQQSAVRLTEIGPRMTLQLIKVQEGVGEGKVMFHSFVSKTEEELQAILEAKEKKLRLKAQRQAQQAQNVQRKQEQREAHRKKSLEGMKKARVGGSDEEASGIPSRTASLELGEDDDEQEDDDIEYFCQAVGEAPSEDLFPEAKQKRLAKSPGRKRKRWEMDRGRGRLCDQKFPKTKDKSQGAQARRGPRGASRDGGRGRGRGRPGKRVA
Consider B2, for which the binding result in test [2] is on record as “binds”.

B3: SURF6 (protein, UniProt O75683 1-361)
chain: MASLLAKDAYLQSLAKKICSHSAPEQQARTRAGKTQGSETAGPPKKKRKKTQKKFRKREEKAAEHKAKSLGEKSPAASGARRPEAAKEEAAWASSSAGNPADGLATEPESVFALDVLRQRLHEKIQEARGQGSAKELSPAALEKRRRRKQERDRKKRKRKELRAKEKARKAEEATEAQEVVEATPEGACTEPREPPGLIFNKVEVSEDEPASKAQRRKEKRQRVKGNLTPLTGRNYRQLLERLQARQSRLDELRGQDEGKAQELEAKMKWTNLLYKAEGVKIRDDERLLQEALKRKEKRRAQRQRRWEKRTAGVVEKMQQRQDRRRQNLRRKKAARAERRLLRARKKGRILPQDLERAGLV
With B3, the binding result in test [2] is on record as “binds”.

B4: RRP15 (protein, UniProt Q9Y3B9 1-282)
chain: MAAAAPDSRVSEEENLKKTPKKKMKMVTGAVASVLEDEATDTSDSEGSCGSEKDHFYSDDDAIEADSEGDAEPCDKENENDGESSVGTNMGWADAMAKVLNKKTPESKPTILVKNKKLEKEKEKLKQERLEKIKQRDKRLEWEMMCRVKPDVVQDKETERNLQRIATRGVVQLFNAVQKHQKNVDEKVKEAGSSMRKRAKLISTVSKKDFISVLRGMDGSTNETASSRKKPKAKQTEVKSEEGPGWTILRDDFMMGASMKDWDKESDGPDDSRPESASDSDT
B4: the binding result in test [2] is listed as “binds”.

B5: RRS1 (protein, UniProt Q15050 1-365)
chain: MEGQSVEELLAKAEQDEAEKLQRITVHKELELQFDLGNLLASDRNPPTGLRCAGPTPEAELQALARDNTQLLINQLWQLPTERVEEAIVARLPEPTTRLPREKPLPRPRPLTRWQQFARLKGIRPKKKTNLVWDEVSGQWRRRWGYQRARDDTKEWLIEVPGNADPLEDQFAKRIQAKKERVAKNELNRLRNLARAHKMQLPSAAGLHPTGHQSKEELGRAMQVAKVSTASVGRFQERLPKEKVPRGSGKKRKFQPLFGDFAAEKKNQLELLRVMNSKKPQLDVTRATNKQMREEDQEEAAKRRKMSQKGKRKGGRQGPGGKRKGGPPSQGGKRKGGLGGKMNSGPPGLGGKRKGGQRPGGKRRK
Take B5: the binding entry in test [3] is recorded as “binds”.

B6: BRX1-EBP2 complex (complex, UniProt Q8TDN6;Q99848)
chain 1: MAATKRKRRGGFAVQAKKPKRNEIDAEPPAKRHATAEEVEEEERDRIPGPVCKGKWKNKERILIFSSRGINFRTRHLMQDLRMLMPHSKADTKMDRKDKLFVINEVCEMKNCNKCIYFEAKKKQDLYMWLSNSPHGPSAKFLVQNIHTLAELKMTGNCLKGSRPLLSFDPAFDELPHYALLKELLIQIFSTPRYHPKSQPFVDHVFTFTILDNRIWFRNFQIIEEDAALVEIGPRFVLNLIKIFQGSFGGPTLYENPHYQSPNMHRRVIRSITAAKYREKQQVKDVQKLRKKEPKTLLPHDPTADVFVTPAEEKPIEIQWVKPEPKVDLKARKKRIYKRQRKMKQRMDSGKTK
chain 2: MDTPPLSDSESESDESLVTDRELQDAFSRGLLKPGLNVVLEGPKKAVNDVNGLKQCLAEFKRDLEWVERLDVTLGPVPEIGGSEAPAPQNKDQKAVDPEDDFQREMSFYRQAQAAVLAVLPRLHQLKVPTKRPTDYFAEMAKSDLQMQKIRQKLQTKQAAMERSEKAKQLRALRKYGKKVQTEVLQKRQQEKAHMMNAIKKYQKGFSDKLDFLEGDQKPLAQRKKAGAKGQQMRKGPSAKRRYKNQKFGFGGKKKGSKWNTRESYDDVSSFRAKTAHGRGLKRPGKKGSNKRPGKRTREKMKNRTH
For the molecule B6, the binding entry in test [3] is recorded as “binds”.

B7: WDR74 (protein, UniProt Q6RFH5 1-385)
chain: MAAAAARWNHVWVGTETGILKGVNLQRKQAANFTAGGQPRREEAVSALCWGTGGETQMLVGCADRTVKHFSTEDGIFQGQRHCPGGEGMFRGLAQADGTLITCVDSGILRVWHDKDKDTSSDPLLELRVGPGVCRMRQDPAHPHVVATGGKENALKIWDLQGSEEPVFRAKNVRNDWLDLRVPIWDQDIQFLPGSQKLVTCTGYHQVRVYDPASPQRRPVLETTYGEYPLTAMTLTPGGNSVIVGNTHGQLAEIDLRQGRLLGCLKGLAGSVRGLQCHPSKPLLASCGLDRVLRIHRIQNPRGLEHKVYLKSQLNCLLLSGRDNWEDEPQEPQEPNKVPLEDTETDELWASLEAAAKRKLSGLEQPQGALQTRRRKKKRPGSTSP
Regarding B7, in test [1], the binding entry is recorded as “binds”.

B8: RRP1 (protein, UniProt P56182 1-461)
chain: MVSRVQLPPEIQLAQRLAGNEQVTRDRAVRKLRKYIVARTQRAAGGFTHDELLKVWKGLFYCMWMQDKPLLQEELGRTISQLVHAFQTTEAQHLFLQAFWQTMNREWTGIDRLRLDKFYMLMRMVLNESLKVLKMQGWEERQIEELLELLMTEILHPSSQAPNGVKSHFIEIFLEELTKVGAEELTADQNLKFIDPFCRIAARTKDSLVLNNITRGIFETIVEQAPLAIEDLLNELDTQDEEVASDSDESSEGGERGDALSQKRSEKPPAGSICRAEPEAGEEQAGDDRDSGGPVLQFDYEAVANRLFEMASRQSTPSQNRKRLYKVIRKLQDLAGGIFPEDEIPEKACRRLLEGRRQKKTKKQKRLLRLQQERGKGEKEPPSPGMERKRSRRRGVGADPEARAEAGEQPGTAERALLRDQPRGRGQRGARQRRRTPRPLTSARAKAANVQEPEKKKKRRE
Regarding B8, the binding entry in test [1] was “binds”.

B9: RPF1 (protein, UniProt Q9H9Y2 1-349)
chain: MAKAGDKSSSSGKKSLKRKAAAEELQEAAGAGDGATENGVQPPKAAAFPPGFSISEIKNKQRRHLMFTRWKQQQRKEKLAAKKKLKKEREALGDKAPPKPVPKTIDNQRVYDETTVDPNDEEVAYDEATDEFASYFNKQTSPKILITTSDRPHGRTVRLCEQLSTVIPNSHVYYRRGLALKKIIPQCIARDFTDLIVINEDRKTPNGLILSHLPNGPTAHFKMSSVRLRKEIKRRGKDPTEHIPEIILNNFTTRLGHSIGRMFASLFPHNPQFIGRQVATFHNQRDYIFFRFHRYIFRSEKKVGIQELGPRFTLKLRSLQKGTFDSKYGEYEWVHKPREMDTSRRKFHL
As to B9, the binding entry in test [1] is on record as “binds”.
